No constants are given. Whether binding was seen depends on the method and setting. Binding seen in cells or lysates may run through a third protein. Some results given as binding are weak or reduced against the parent protein; the word gives no strength. Sequences can lack the tags named with a protein.
Biological target: T1, untagged human Zcyto7 (human) (UniProt Q9UHF5)
T1 sequence (looked up): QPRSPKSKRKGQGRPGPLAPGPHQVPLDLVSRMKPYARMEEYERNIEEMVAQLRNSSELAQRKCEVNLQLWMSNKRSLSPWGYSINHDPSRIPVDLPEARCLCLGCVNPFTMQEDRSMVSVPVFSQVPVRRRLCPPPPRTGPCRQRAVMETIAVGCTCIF
Assay: co-expression in BHK cells, anti-EE affinity co-purification; interaction did not appear to be due to interchain disulfide bonding

binding: binds
B1: Human Ztgfβ-9 protein (ligand)
chain: AGAPRAGRRPARPRGCADRPEELLEQLYGRLAAGVLSAFHHTLQLGPREQARNASCPAGGRPADRRFRPPTNLRSVSPWAYRISYDPARYPRYLPEAYCLCRGCLTGLFGEEDVRFRSAPVYMPTVVLRRTPACAGGRSVYTEAYVTIPVGCTCVPEPEKDADSINSSIDKQGAKLLLGPNDAPAGP
notes: also called transforming growth factor beta-9
